US20020055130A1, “Method and product for regulating apoptosis” (National Jewish Center for Immunology and Respiratory …, priority 1997, published 2002)

By UniProt entry, the sequences of proteins in these tests, tags left out. Where a name states a change or a piece, a line headed by the entry shows the natural chain unless it says otherwise.
UniProt P53349: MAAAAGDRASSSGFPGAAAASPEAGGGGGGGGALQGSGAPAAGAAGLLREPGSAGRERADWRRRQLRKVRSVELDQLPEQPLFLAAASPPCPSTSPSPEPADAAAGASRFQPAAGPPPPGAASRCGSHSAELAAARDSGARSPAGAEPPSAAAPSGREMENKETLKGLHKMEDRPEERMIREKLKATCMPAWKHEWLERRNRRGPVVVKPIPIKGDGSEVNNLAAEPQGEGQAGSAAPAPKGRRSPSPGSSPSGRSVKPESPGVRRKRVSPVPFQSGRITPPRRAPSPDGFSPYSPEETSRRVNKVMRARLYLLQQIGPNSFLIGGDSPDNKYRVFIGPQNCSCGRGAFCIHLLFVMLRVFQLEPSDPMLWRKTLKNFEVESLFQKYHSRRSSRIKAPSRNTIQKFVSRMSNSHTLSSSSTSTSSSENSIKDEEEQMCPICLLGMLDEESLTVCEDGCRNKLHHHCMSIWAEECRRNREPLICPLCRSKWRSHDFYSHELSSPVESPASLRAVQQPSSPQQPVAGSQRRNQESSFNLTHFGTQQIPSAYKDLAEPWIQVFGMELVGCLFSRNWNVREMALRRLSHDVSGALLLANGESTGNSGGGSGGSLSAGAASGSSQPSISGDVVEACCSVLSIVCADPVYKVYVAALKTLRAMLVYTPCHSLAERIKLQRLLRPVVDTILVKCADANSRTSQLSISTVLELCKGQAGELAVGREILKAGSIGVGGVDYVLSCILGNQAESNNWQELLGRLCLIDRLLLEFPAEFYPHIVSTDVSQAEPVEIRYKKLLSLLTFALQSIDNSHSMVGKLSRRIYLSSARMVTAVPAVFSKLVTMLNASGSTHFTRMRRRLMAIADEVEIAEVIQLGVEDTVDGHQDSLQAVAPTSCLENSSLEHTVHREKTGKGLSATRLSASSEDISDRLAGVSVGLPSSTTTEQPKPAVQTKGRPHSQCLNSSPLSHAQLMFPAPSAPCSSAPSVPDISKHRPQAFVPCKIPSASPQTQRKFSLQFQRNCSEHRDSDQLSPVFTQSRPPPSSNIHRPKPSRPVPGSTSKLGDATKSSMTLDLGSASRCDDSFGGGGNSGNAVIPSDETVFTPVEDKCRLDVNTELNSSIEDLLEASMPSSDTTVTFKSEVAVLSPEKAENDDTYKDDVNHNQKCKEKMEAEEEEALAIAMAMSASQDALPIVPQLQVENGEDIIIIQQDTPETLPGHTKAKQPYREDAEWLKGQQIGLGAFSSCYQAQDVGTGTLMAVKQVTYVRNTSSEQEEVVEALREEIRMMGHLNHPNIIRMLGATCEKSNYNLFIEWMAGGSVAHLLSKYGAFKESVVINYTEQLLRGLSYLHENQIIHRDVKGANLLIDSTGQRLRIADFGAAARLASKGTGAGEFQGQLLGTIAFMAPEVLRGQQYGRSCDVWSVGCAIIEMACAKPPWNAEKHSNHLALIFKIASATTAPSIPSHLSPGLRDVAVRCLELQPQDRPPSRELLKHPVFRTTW

Substrate: COS cell-expressed MEKK1 (holoMEKK1) (UniProt P53349)
Experiment: GST fusion protein against COS cell-expressed protein

binding: binds
B1: GST fusion protein of the T cell 14-3-3 isoform (protein, UniProt P27348 1-245, looked up, not shown: a dimerising Fc or GST)
chain: MEKTELIQKAKLAEQAERYDDMATCMKAVTEQGAELSNEERNLLSVAYKNVVGGRRSAWRVISSIEQKTDTSDKKLQLIKDYREKVESELRSICTTVLELLDKYLIANATNPESKVFYLKMKGDYFRYLAEVACGDDRKQTIDNSQGAYQEAFDISKKEMQPTHPIRLGLALNFSVFYYEILNNPELACTLAKTAFDEAIAELDTLNEDSYKDSTLIMQLLRDNLTLWTSDSAGEECDAAEGAEN

No constants are given. Whether binding was seen depends on the method and setting. A result given as binding can be weak or reduced; the word gives no strength. Where a sequence is shown, tags or fusion partners need not be part of it.
